PubChem BioAssay AID1259254 – NCATS – 2017
In all, the deposit lists about 59,000 reagents; this is a random part of them. About 1,550 of all reagents (2.6%) count as active. 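G2 share is only a proxy for re-replication; each gene was hit by three separate siRNAs, and active genes were retested.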 Raw values are not corrected between plates. Unmarked entries are inactive. Reagents against one gene are numbered here. Reagent sequences are not shown. The record does not give: the amount of reagent.

Screen: 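Gene knock-downs that lead to re-replication, shown by excess G2 DNA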 (primary screen)
Cell system: human HCT116 colorectal cancer cells
Knock-down reagent: single siRNA against human genes
Time to read-out: 3 days
Detection: 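Nuclei stained with Hoechst and imaged; cell-cycle phase assigned by DNA content; G2 share scaled per plate, non-targeting siRNA 0%, GMNN siRNA 100%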
Reading the numbers: G2 robust z-score and G2 cells, % of GMNN control: higher = more G2 cells, more excess DNA replication; raw share of cells in G2: higher = larger share of cells with G2 DNA content
Active means: 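Active siRNAs have a G2 robust z of 5 or more median absolute deviations over the median, which in these data means about 38% or higher of GMNN control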

no.	gene symbol	siRNA no.	G2 robust z-score	G2 cells, % of GMNN control	raw share of cells in G2 (%)
1	CNTN4	1	-0.448	-0.182	4.62
2	CNTN4	2	-0.644	-1.56	4.13
3	CNTN4	3	0.0364	3.22	7.49
4	JADE2	1	2.05	17.4	13.3
5	JADE2	2	-1.27	-5.98	2.15
6	JADE2	3	-0.241	1.27	4.3
7	CTLA4	1	0.684	7.78	8.95
8	CTLA4	2	-0.343	0.555	4.29
9	CTLA4	3	2.57	21.1	11.8
10	VRK2	1	0.0391	3.24	6.6
11	VRK2	2	3.27	26	12
12	VRK2	3	-1.13	-4.97	3.38
13	NOL12	1	-0.202	1.55	5.25
14	NOL12	2	3.29	26.1	16.3
15	NOL12	3	0.912	9.38	5.17
16	YBX1	1	-0.484	-0.436	4.57
17	YBX1	2	0.235	4.62	4.78
18	YBX1	3	2.45	20.2	12.8
19	SPEF2	1	-0.826	-2.84	3.26
20	SPEF2	2	-0.0934	2.31	5.31
21	SPEF2	3	-0.391	0.216	2.44

4 entries already listed, sorted by “G2 cells, % of GMNN control”, lowest first:
gene symbol	siRNA no.	G2 robust z-score	G2 cells, % of GMNN control	raw share of cells in G2 (%)
CTLA4	2	-0.343	0.555	4.29
VRK2	1	0.0391	3.24	6.6
CTLA4	3	2.57	21.1	11.8
VRK2	2	3.27	26	12

Further reagents:
no.	gene symbol	siRNA no.	G2 robust z-score	G2 cells, % of GMNN control	raw share of cells in G2 (%)
22	ME3	1	0.431	6	8.3
23	ME3	2	3.35	26.6	12.4
24	ME3	3	1.41	12.9	11.6
25	SLC31A1	1	0.635	7.44	7.62
26	SLC31A1	2	3.03	24.3	13.9
27	SLC31A1	3	2.3	19.2	10.7
28	COX7A2L	1	-0.476	-0.384	4.57
29	COX7A2L	2	-0.0707	2.47	6.13
30	COX7A2L	3	-0.206	1.51	5.23
31	OLFM4	1	-1.18	-5.34	2.92
32	OLFM4	2	-0.493	-0.503	3.73
33	OLFM4	3	-1.2	-5.45	1.42
34	ABITRAM	1	-0.606	-1.3	3.14
35	ABITRAM	2	1.12	10.9	8.85
36	ABITRAM	3	-0.304	0.828	3.47
37	HBB	1	2.26	18.9	12.9
38	HBB	2	0.252	4.74	5.94
39	HBB	3	3.27	26	14.5
40	ATP6AP1L	1	-0.0367	2.71	3.78
41	ATP6AP1L	2	-0.161	1.83	4.86
42	ATP6AP1L	3	1.09	10.7	6.34
43	ZPLD1	1	0.419	5.92	6.4
44	ZPLD1	2	-0.392	0.206	3.17
45	ZPLD1	3	-0.171	1.76	3.22
46	TAC4	1	-0.748	-2.29	2.46
47	TAC4	2	-0.646	-1.58	3.01
48	TAC4	3	-0.223	1.4	3.61
